Test results taken from article PMC7822929.
No constants are given. Whether binding was seen depends on the method and setting. Binding seen in cells or lysates may run through a third protein. Some entries that bind do so weakly or less than the wild type.

The chains behind the UniProt entries cited, without tags or fusion partners. Residues count along the entry.
UniProt O00206, residues 24-839: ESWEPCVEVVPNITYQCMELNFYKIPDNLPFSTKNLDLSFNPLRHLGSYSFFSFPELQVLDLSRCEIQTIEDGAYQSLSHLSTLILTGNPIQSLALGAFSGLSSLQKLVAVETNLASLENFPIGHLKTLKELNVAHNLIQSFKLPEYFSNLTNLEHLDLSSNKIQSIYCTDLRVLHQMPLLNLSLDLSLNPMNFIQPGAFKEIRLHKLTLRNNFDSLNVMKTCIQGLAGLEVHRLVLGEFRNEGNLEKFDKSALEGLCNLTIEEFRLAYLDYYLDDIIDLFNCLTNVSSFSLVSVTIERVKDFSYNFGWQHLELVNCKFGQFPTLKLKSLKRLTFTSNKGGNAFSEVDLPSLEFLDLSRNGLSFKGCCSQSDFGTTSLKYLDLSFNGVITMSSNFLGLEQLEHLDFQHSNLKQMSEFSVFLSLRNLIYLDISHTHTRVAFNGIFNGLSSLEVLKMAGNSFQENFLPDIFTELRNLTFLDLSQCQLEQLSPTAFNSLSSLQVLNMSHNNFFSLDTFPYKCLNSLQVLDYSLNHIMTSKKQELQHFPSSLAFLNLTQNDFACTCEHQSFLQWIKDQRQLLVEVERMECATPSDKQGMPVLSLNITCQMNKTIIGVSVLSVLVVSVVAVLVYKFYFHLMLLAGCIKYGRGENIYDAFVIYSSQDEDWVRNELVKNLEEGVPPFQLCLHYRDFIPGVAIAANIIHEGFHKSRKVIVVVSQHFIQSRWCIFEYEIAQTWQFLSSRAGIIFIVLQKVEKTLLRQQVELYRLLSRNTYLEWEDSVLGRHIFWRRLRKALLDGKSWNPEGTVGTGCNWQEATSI
UniProt P14625, residues 22-803: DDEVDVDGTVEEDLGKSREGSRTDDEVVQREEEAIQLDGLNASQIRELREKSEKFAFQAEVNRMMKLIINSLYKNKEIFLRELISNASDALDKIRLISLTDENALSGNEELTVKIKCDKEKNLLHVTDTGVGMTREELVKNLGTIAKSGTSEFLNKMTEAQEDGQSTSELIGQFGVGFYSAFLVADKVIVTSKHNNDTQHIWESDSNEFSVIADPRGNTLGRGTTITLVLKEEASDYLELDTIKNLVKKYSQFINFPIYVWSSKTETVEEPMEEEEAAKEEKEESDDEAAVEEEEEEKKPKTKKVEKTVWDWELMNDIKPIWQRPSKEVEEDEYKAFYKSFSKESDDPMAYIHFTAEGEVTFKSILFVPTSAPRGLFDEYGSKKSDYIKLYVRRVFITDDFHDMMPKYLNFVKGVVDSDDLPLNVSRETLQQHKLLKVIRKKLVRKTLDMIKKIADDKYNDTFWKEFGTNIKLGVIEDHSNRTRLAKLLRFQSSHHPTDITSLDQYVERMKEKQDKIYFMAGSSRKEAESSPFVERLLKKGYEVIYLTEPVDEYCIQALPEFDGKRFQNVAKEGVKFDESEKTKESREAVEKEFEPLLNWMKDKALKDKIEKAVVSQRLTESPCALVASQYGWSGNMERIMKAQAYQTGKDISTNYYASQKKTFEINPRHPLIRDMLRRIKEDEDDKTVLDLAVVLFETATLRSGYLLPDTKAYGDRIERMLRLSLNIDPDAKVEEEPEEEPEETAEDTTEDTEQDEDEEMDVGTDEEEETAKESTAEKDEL

Target: TLR4, endogenous in human monocyte-derived macrophages (human (endogenous in monocyte-derived macrophages)) (UniProt O00206)
Assay: proximity ligation; Duolink PLA in situ in activated M1 and M2 macrophages, treated or not with Tg, pretreated or not with PU-WS13 or DMSO; pairs of primary antibodies (anti-C3d + anti-GRP94; anti-GRP94 + anti-TLR4; anti-GRP94 + anti-cathepsin L); spots per cell counted

## Glucose-regulated protein 94 (GRP94), endogenous in human monocyte-derived macrophages (from UniProt P14625 22-803)
  binding: binds
